Among all 31,000 sequences or so, about 1,400 (4.5%) were called active.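 How the source made its calls: active means median seed-adjusted z-score above 1 or below -1; inactive means the rest.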 The list shows a part of the results.
Experiment: Novel Modifiers of Survival Motor Neuron (SMN) Protein: Gene Identification via Genome-wide siRNA Screen;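 further: luminescence tracks full-length SMN protein made from the SMN2 reporter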
Details: HEK293T SMN2-luciferase reporter, siRNA knockdown, 72 h; actives lie on both sides
Summary of the method: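 HEK293T cells stably carrying an SMN2 promoter/splicing cassette–luciferase reporter were reverse-transfected with 1 pmol siRNA per well (druggable-genome library, 3 siRNAs per gene) and grown 72 h at 37 °C. Luminescence, normalized to negative-control siRNA and log10-transformed, was scored as MAD.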

Sequence | median seed-adjusted z-score
GGAUGCUAAUGAAACUGGUTT against NR1H3 | inactive: 0.426
CCAGAGGCAGAGUACAUCATT against VGLL2 | inactive: -0.0234
UGAGCUGUCCCAUUAAACATT against ARHGDIG | inactive: 0.227
CAAGGUUUUUAGUUACAAUTT against ZNF480 | inactive: -0.164
GGAAUUAUAUUCAUCGUGATT against LCK | inactive: 0.676
GGCUGUUCGAGUCCUGAAATT against FMO1 | inactive: 0.323
CCAAUGCUGUGACUUUCGATT against KIFC3 | inactive: 0.54
GAACUGUUUGUUAACGUAATT against RIPK3 | inactive: 0.123
CAACUUGUCUCAGUCAACATT against STXBP4 | inactive: -0.565
GGGUUAGGAGUGUACAUCATT against NIN | inactive: 0.646
GGCCUUUCCUUUACUGUCATT against ABCC4 | active: -1.66
AGAACAACCGGAUUCGAGATT against LRRC52 | inactive: 0.118
GAUUCGUUCUUCUACAACUTT against PSMD2 | active: -1.44
ACCAAUAUGUGCUCACUUUTT against MOGAT3 | inactive: -0.383
GAGUAUGCGUUGAGACAUUTT against LGMN | inactive: 0.391
ACCUGAAGUUUGCCCGCUATT against SLC29A2 | inactive: -0.0569
GAAUAGAUUUCAGUAGUAUTT against DDI2 | active: 1.27
AGGAGUUCCAUUUCAACAATT against HOXB1 | inactive: -0.0455
CGAUGAAACUCUCAUAGAUTT against HK1 | inactive: -0.129
CAAAAGGACUAAUACCAUATT against HIBCH | inactive: 0.0655
CCCACUAAAUUUUCGGAAATT against ATAD2 | inactive: -0.246
GGUGCAAGAGAGUCCGUUUTT against D2HGDH | inactive: -0.637
GCAGGUUUCUCAUCGAUUUTT against MYST3 | inactive: -0.49
GCUACACGCUGAUGAACAATT against KIF17 | inactive: -0.151
GACACUACCUUCUCCCAUUTT against NR1I2 | inactive: -0.922
GCCUUAUUAUGAUCUUGUATT against TGFBR1 | inactive: 0.226
GGCUCAAUAACAUCGUUAATT against BCL6 | inactive: -0.352

2 records picked at random from those above:
Sequence | median seed-adjusted z-score
CGAUGAAACUCUCAUAGAUTT against HK1 | inactive: -0.129
GAACUGUUUGUUAACGUAATT against RIPK3 | inactive: 0.123

Later entries:

Sequence | median seed-adjusted z-score
GGAGUUCGCAAAAUCGUCATT against NRK | inactive: 0.0687
CCUAAUUCCUGGAGUGAUATT against SAMD7 | inactive: 0.161
GAUGUGACCUAUCAAAUGATT against DHRS11 | inactive: -0.476
UGAUCUCAGUCGAAGAAGATT against ZP4 | inactive: 0.0498
GGUGGACACUUGUAUACAATT against KCTD6 | inactive: 0.124
CCAUCACCUUCAAUCCGCUTT against PEMT | inactive: 0.0218
CCAGAUCAGUCCUAGCUUATT against GLIS3 | inactive: -0.00906
CCGUUGAGCUGCAUACUAATT against CA3 | inactive: -0.276
CCUUAACAUUUGUAGACUUTT against ZNF765 | inactive: 0.541
GGAGGUUCAGAAGCACCUATT against PACSIN2 | inactive: 0.73
CAAGGAGUAUGAGUACUCATT against IL12B | inactive: 0.409
GCCUAUUCCUUCAAGUAUUTT against SUPT6H | active: -2.54
GCUCCAGUCUUGUUAAACATT against ZNF773 | inactive: 0.345
GGCACAUCAUCUACAUAGATT against MMEL1 | inactive: 0.325
CAGUGGAUAUCAAGCUUAATT against OPA1 | inactive: -0.182
GCCUAUCAGUGGAGUGUUATT against PLAA | inactive: -0.192
GAUCAGGUGUAAAUAGUGATT against DEK | inactive: 0.374
UUUUGUUCAUAUAACGUCATT against IFNA1 | inactive: -0.625
GAACUCUUUCAAGAUCUAATT against ETV1 | inactive: 0.167
GCAAGGCAAUGCAAACGAATT against DDX43 | inactive: -0.452
GCGCAAAGCUGAUUCUGAUTT against CBX1 | inactive: 0
GGCUCCAGAUCAUGAAGUATT against ZNF48 | inactive: -0.116
CCGAGAAGCUUCUAUUUCATT against DGKI | inactive: -0.417
UGAGCUACAUGGUAUAUUUTT against ADORA2B | inactive: -0.471
GGAUCGCCCUGUAUGCUGUTT against LRTM2 | inactive: 0.465
AGUGCUACCUGAUCUCCGATT against DMRTB1 | inactive: -0.393
GAGGUACUCUAUCAACGUATT against LRP1B | inactive: -0.0589

From PubChem BioAssay AID1347426 (Functional Genomics Laboratory (NCATS/FGL), 2020)
